PubChem BioAssay AID743454, Peter MacCallum Cancer Centre | 2014
The whole screen tested about 18,000 reagents; shown is an unselected part. In the full data, 450 (2.5%) are marked active. 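Single biological run; no consistent viability z cut-off exists, so the class columns, not z-scores, define the calls.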

Purpose: 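Search for knock-downs that restore vorinostat killing in resistant colon cancer cells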 (primary screen)
Cell system: human HCT116-VR colon cancer cells, selected for vorinostat resistance
Reagent: siRNA pool against human genes, 40 nM siRNA pool
Duration: vorinostat for 24 h, read-out about 72 h after transfection
Conditions: vorinostat at 2.5 µM final
Detection: 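Cell viability by CellTiter-Fluor and caspase 3/7 activity by luminescence, each scaled to mock wells per plate, duplicates averaged, then robust z-scored over all plates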
Scale: viability robust z-score: higher = more viable cells than screen typical; caspase robust z-score: higher = more caspase 3/7 activity than screen typical
Hit rule: 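Hits are knock-downs in viability class RV1/RV2 or caspase class CA1/CA2, excluding ones that killed cells in the no-drug cell-count arm; hits then retested with single siRNAs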

The first 9 records, to show the layout:
gene knocked down | viability hit class | caspase hit class | viability robust z-score | caspase robust z-score | Call
CCT8L2 (chaperonin containing TCP1 subunit 8 like 2) | no change | no change | 0.16 | 0.3 | inactive
HNRNPF (heterogeneous nuclear ribonucleoprotein F) | no change | no change | -0.22 | -0.25 | inactive
GCAT (glycine C-acetyltransferase) | no change | no change | -0.6 | 0.76 | inactive
THPO (thrombopoietin) | no change | no change | -0.28 | -0.14 | inactive
CHRFAM7A (CHRNA7 (exons 5-10) and FAM7A (exons A-E) fusion) | no change | no change | 0.66 | -0.72 | inactive
ADRA1D (adrenoceptor alpha 1D) | no change | no change | -0.46 | -0.82 | inactive
CDCA8 (cell division cycle associated 8) | no change | no change | -1.22 | 5.64 | inactive
CYSRT1 (cysteine rich tail 1) | no change | no change | 0.58 | -0.8 | inactive
TCF20 (transcription factor 20) | no change | no change | 0.01 | -0.2 | inactive

The list itself, from the start:
gene knocked down | viability hit class | caspase hit class | viability robust z-score | caspase robust z-score | Call
CCT8L2 (chaperonin containing TCP1 subunit 8 like 2) | no change | no change | 0.16 | 0.3 | inactive
HNRNPF (heterogeneous nuclear ribonucleoprotein F) | no change | no change | -0.22 | -0.25 | inactive
GCAT (glycine C-acetyltransferase) | no change | no change | -0.6 | 0.76 | inactive
THPO (thrombopoietin) | no change | no change | -0.28 | -0.14 | inactive
CHRFAM7A (CHRNA7 (exons 5-10) and FAM7A (exons A-E) fusion) | no change | no change | 0.66 | -0.72 | inactive
ADRA1D (adrenoceptor alpha 1D) | no change | no change | -0.46 | -0.82 | inactive
CDCA8 (cell division cycle associated 8) | no change | no change | -1.22 | 5.64 | inactive
CYSRT1 (cysteine rich tail 1) | no change | no change | 0.58 | -0.8 | inactive
TCF20 (transcription factor 20) | no change | no change | 0.01 | -0.2 | inactive
HBP1 (HMG-box transcription factor 1) | no change | no change | -1.8 | -0.78 | inactive
WBP1L (WW domain binding protein 1 like) | no change | no change | -2.04 | 2.29 | inactive
EIF4EBP2 | no change | no change | -0.13 | 1.88 | inactive
NR4A3 (nuclear receptor subfamily 4 group A member 3) | no change | no change | 0.26 | -0.32 | inactive
COQ10B (coenzyme Q10B) | no change | no change | -0.34 | -0.96 | inactive
KCNJ16 (potassium inwardly rectifying channel subfamily J member 16) | no change | no change | -0.75 | -0.88 | inactive
HOXC6 (homeobox C6) | no change | no change | 0.72 | 0.27 | inactive
RNF150 (ring finger protein 150) | no change | no change | -0.08 | -0.69 | inactive
SLC25A23 | no change | no change | 0.36 | 2.9 | inactive
DPEP1 (dipeptidase 1) | no change | no change | 0.46 | 1.6 | inactive
SELENOV (selenoprotein V) | no change | no change | 0.97 | 3.09 | inactive
COX17 (cytochrome c oxidase copper chaperone COX17) | no change | no change | 1.82 | 0.33 | inactive
CBR4 (carbonyl reductase 4) | no change | no change | -0.93 | -1.08 | inactive
KCNA1 (potassium voltage-gated channel subfamily A member 1) | no change | no change | 1.27 | -0.05 | inactive
ERVFRD-1 (endogenous retrovirus group FRD member 1, envelope) | no change | no change | -0.4 | -0.84 | inactive
DPY30 (dpy-30 histone methyltransferase complex regulatory subunit) | no change | no change | 0.4 | -0.44 | inactive
EML4 (EMAP like 4) | no change | no change | 2.08 | -0.42 | inactive
NAT8B (N-acetyltransferase 8B (putative, gene/pseudogene)) | RV2 (reduced viability) | no change | -2.96 | 3.35 | active
OSM (oncostatin M) | no change | no change | 0.88 | -0.23 | inactive
SPRED1 (sprouty related EVH1 domain containing 1) | no change | no change | 0.87 | -0.5 | inactive
RILPL1 (Rab interacting lysosomal protein like 1) | no change | no change | 0.7 | 0.23 | inactive
RSRC2 (arginine and serine rich coiled-coil 2) | no change | no change | 0.74 | 0.66 | inactive
TCEA3 (transcription elongation factor A3) | no change | no change | 0.24 | -0.09 | inactive
CEP120 (centrosomal protein 120) | no change | no change | -0.08 | 1.23 | inactive
ASRGL1 (asparaginase and isoaspartyl peptidase 1) | no change | no change | 1.15 | -0.04 | inactive
RPS16 (ribosomal protein S16) | no change | no change | -4.86 | -1.63 | inactive
OR4M1 (olfactory receptor family 4 subfamily M member 1) | no change | no change | -0.03 | -0.33 | inactive
TYSND1 (trypsin like peroxisomal matrix peptidase 1) | no change | no change | 0.43 | 0.26 | inactive
KIAA0408 | no change | no change | -0.01 | -0.16 | inactive
TRAPPC9 (trafficking protein particle complex subunit 9) | no change | no change | 0.8 | -0.51 | inactive
COMMD2 (COMM domain containing 2) | no change | CA1 (caspase activation) | -1.23 | 6.35 | active
REXO2 (RNA exonuclease 2) | no change | no change | 0.09 | -0.73 | inactive
SLC22A6 | no change | no change | -0.5 | -0.08 | inactive
TRIB2 (tribbles pseudokinase 2) | no change | no change | -0.42 | 0.08 | inactive
ODC1 (ornithine decarboxylase 1) | no change | no change | -2 | -0.32 | inactive
PNPLA5 (patatin like domain 5, triacylglycerol lipase) | no change | no change | -0.39 | -0.29 | inactive
SH2D2A (SH2 domain containing 2A) | no change | no change | 1.23 | -0.36 | inactive
KITLG (KIT ligand) | no change | no change | 0.65 | -0.73 | inactive
PTPN9 (protein tyrosine phosphatase non-receptor type 9) | no change | no change | 1.65 | 0.19 | inactive
PDZK1IP1 (PDZK1 interacting protein 1) | no change | no change | 0.76 | 0.02 | inactive
C8orf34 (chromosome 8 open reading frame 34) | no change | no change | 0.32 | -0.92 | inactive
FOXK2 (forkhead box K2) | no change | no change | 0.82 | 2.03 | inactive
CYP19A1 (cytochrome P450 family 19 subfamily A member 1) | no change | no change | 0.16 | 1.15 | inactive
FOXN2 (forkhead box N2) | no change | no change | -0.04 | 0.3 | inactive
POLH (DNA polymerase eta) | no change | no change | 0.67 | 1.52 | inactive
CAPN9 (calpain 9) | no change | no change | -0.22 | 0.52 | inactive
RBM34 (RNA binding motif protein 34) | no change | no change | -1.06 | 4.4 | inactive
OPTC (opticin) | no change | no change | 0.68 | 0.02 | inactive
TCF7L1 (transcription factor 7 like 1) | no change | no change | 0.22 | -1.06 | inactive
RPS13 (ribosomal protein S13) | no change | no change | -4.81 | -1.64 | inactive
ZNF787 (zinc finger protein 787) | no change | no change | -0.69 | 2.59 | inactive
CD300C (CD300c molecule) | no change | no change | -1.4 | 1.08 | inactive
AARS1 (alanyl-tRNA synthetase 1) | no change | no change | -0.16 | -0.57 | inactive
IGF2BP1 (insulin like growth factor 2 mRNA binding protein 1) | no change | no change | 0.11 | 0.28 | inactive
EHD2 (EH domain containing 2) | no change | no change | 1.6 | 0.8 | inactive
BRD3 (bromodomain containing 3) | no change | no change | 0.77 | -1.23 | inactive
MAGEA9B (MAGE family member A9B) | no change | no change | 0.54 | -0.96 | inactive
COQ5 (coenzyme Q5, methyltransferase) | no change | no change | 0.28 | 0.92 | inactive
RAG1 (recombination activating 1) | no change | no change | -0.03 | 1.92 | inactive
HFE (homeostatic iron regulator) | no change | no change | 0.6 | 1.8 | inactive
NCF1 (neutrophil cytosolic factor 1) | no change | no change | 0.84 | -0.38 | inactive
MOV10 (Mov10 RNA helicase) | no change | no change | -1.25 | -1.04 | inactive
ZNF705A (zinc finger protein 705A) | no change | no change | 0.13 | 0.68 | inactive
PALB2 (partner and localizer of BRCA2) | no change | no change | -1.49 | 2.48 | inactive
